Conditions in all cases: stereoisomer not certain
The target of one experiment is T1, OR10K1 (Homo sapiens) (UniProt Q8NGX5).
T1 sequence (whole entry): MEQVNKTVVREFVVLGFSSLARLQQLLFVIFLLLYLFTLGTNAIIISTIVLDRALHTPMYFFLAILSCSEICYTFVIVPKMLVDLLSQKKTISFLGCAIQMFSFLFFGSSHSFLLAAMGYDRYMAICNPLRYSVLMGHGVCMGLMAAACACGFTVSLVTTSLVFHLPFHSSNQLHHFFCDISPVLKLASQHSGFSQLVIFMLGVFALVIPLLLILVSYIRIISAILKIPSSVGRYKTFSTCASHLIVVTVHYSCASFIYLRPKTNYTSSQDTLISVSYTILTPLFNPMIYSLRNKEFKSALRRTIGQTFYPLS
The method, boiled down:
(§1)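 Each receptor–molecule pair is labelled responsive or non-responsive (inactive) according to whether the original authors judged the measured signal statistically different from baseline. The data were taken from the main text and supplementary material of published papers and checked for typos and inconsistencies. Assay methods differed by source, with transient luciferase assays in mammalian cell lines being common.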

By UniProt entry, the sequences of proteins in these tests, tags left out. Where a name states a change or a piece, a line headed by the entry shows the natural chain unless it says otherwise.
UniProt B2RN74: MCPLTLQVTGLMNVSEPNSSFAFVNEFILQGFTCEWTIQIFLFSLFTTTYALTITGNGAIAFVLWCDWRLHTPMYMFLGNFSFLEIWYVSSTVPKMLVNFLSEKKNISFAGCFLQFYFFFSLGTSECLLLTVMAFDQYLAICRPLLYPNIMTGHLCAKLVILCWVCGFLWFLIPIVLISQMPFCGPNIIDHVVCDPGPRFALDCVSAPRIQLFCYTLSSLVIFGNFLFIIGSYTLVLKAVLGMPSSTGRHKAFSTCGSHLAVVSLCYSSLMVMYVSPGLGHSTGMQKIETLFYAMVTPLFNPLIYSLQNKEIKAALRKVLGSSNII

The target of a further experiment is T2, OR10K2 (Homo sapiens) (UniProt Q6IF99).
T2 sequence (whole entry): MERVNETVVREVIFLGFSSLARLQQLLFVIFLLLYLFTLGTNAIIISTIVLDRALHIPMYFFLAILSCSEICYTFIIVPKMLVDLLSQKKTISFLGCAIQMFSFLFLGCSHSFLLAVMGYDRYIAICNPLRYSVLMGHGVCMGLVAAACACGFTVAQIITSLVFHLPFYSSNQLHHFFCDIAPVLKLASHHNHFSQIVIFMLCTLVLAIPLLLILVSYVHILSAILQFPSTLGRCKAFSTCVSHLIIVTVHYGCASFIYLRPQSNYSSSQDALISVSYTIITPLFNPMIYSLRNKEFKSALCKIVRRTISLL
The method in brief:
as §1

The target in the next experiment is T3, OR10T2 (Homo sapiens) (UniProt Q8NGX3).
T3 sequence (whole entry): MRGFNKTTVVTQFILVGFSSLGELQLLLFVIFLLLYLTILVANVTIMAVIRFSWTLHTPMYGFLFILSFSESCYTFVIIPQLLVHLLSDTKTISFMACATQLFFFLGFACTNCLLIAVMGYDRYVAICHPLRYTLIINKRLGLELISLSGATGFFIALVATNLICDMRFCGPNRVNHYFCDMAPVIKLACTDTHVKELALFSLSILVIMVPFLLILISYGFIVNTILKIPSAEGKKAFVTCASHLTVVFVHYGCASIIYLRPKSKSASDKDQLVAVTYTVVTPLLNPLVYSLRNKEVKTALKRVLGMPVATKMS
The method in brief:
as §1

In a further experiment the target is T4, OR10X1 (Homo sapiens) (UniProt Q8NGY0).
T4 sequence (whole entry): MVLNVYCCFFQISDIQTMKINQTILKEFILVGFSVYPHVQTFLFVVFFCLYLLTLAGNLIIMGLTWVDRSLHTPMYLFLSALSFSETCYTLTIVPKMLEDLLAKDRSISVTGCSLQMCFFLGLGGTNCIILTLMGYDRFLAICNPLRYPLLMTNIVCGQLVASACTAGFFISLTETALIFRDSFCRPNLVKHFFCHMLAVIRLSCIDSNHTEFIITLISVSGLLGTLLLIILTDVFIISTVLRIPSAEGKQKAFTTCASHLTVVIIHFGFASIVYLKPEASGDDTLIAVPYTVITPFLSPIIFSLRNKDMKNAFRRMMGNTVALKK
The method in brief:
as §1

Another experiment concerns the target T5, OR10Z1 (Homo sapiens) (UniProt Q8NGY1).
T5 sequence (whole entry): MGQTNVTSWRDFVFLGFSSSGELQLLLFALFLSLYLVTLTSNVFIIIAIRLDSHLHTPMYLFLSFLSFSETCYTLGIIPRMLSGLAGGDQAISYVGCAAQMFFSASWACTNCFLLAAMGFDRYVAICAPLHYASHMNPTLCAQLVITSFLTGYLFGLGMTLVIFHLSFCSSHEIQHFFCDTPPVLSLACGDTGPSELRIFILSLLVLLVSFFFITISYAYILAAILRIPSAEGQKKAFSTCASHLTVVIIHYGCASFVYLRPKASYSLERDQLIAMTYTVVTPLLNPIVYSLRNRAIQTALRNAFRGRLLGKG
The method in brief: as §1

For another experiment, the target named is T6, OR11A1 (Homo sapiens) (UniProt Q9GZK7).
T6 sequence (whole entry): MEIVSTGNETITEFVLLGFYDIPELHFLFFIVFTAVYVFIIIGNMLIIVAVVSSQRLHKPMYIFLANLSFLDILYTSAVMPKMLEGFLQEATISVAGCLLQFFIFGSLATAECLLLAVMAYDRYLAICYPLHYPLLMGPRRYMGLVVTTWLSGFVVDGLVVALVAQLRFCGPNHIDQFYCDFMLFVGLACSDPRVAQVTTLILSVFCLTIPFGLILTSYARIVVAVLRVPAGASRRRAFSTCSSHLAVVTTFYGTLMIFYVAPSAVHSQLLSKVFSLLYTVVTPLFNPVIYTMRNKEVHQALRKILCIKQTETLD
The method in brief:
as §1

Another experiment has as its target T7, OR11H4 (Homo sapiens) (UniProt Q8NGC9).
T7 sequence (whole entry): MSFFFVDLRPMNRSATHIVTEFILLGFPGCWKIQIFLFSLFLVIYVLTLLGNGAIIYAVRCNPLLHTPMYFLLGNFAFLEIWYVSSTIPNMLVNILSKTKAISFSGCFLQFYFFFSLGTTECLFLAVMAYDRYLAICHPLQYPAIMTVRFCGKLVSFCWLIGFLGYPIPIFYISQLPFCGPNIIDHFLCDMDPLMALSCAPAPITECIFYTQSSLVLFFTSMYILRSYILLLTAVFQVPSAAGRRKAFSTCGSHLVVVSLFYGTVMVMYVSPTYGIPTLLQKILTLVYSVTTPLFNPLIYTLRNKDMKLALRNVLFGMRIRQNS
The method in brief: as §1

The next experiment deals with T8, OR11H6 (Homo sapiens) (UniProt Q8NGC7).
T8 sequence (whole entry): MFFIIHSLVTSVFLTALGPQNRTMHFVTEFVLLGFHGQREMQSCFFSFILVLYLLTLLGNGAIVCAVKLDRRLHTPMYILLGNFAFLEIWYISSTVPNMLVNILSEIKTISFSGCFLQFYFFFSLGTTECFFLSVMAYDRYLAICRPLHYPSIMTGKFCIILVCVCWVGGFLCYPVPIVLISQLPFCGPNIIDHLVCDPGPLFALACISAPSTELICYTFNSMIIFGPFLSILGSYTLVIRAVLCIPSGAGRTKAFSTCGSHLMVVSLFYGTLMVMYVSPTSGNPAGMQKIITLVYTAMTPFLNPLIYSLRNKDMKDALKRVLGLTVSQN
The method in brief: as §1

A further experiment deals with T9, OR12D2 (Homo sapiens) (UniProt P58182).
T9 sequence (whole entry): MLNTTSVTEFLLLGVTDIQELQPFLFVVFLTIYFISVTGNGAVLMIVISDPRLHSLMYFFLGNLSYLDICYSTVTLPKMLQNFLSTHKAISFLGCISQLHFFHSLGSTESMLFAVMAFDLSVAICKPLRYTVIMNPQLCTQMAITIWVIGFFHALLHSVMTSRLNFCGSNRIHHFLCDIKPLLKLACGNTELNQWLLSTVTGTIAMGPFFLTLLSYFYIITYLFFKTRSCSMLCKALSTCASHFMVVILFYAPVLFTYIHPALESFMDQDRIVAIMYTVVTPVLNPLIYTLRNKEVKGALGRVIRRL
The method in brief: as §1

In the next experiment the target is T10, OR12D3 (Homo sapiens) (UniProt Q9UGF7).
T10 sequence (whole entry): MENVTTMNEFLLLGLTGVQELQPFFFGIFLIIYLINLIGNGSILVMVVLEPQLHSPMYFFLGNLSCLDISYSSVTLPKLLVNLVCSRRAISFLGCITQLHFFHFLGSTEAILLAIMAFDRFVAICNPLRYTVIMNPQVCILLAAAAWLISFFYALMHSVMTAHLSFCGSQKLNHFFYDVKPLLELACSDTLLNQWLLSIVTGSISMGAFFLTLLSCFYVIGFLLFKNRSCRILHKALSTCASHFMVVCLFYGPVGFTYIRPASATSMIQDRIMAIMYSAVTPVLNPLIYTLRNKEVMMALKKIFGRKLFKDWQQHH
The method in brief:
as §1

For a further experiment, the target named is T11, OR13A1 (Homo sapiens) (UniProt Q8NGR1).
T11 sequence (whole entry): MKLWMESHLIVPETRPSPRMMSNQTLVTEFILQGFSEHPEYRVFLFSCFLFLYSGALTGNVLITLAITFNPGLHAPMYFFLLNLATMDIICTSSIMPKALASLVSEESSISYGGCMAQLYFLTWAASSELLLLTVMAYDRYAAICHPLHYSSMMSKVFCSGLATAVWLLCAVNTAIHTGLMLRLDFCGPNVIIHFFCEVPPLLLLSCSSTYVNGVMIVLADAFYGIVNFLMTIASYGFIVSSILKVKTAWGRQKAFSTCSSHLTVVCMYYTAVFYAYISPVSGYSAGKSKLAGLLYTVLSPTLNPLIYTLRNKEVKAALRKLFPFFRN
The method, boiled down: as §1

The target of another experiment is OR11H12 (Homo sapiens) (UniProt B2RN74). The method in brief:
as §1

Another experiment has as its target T12, OR10S1 (Homo sapiens) (UniProt Q8NGN2).
T12 sequence (whole entry): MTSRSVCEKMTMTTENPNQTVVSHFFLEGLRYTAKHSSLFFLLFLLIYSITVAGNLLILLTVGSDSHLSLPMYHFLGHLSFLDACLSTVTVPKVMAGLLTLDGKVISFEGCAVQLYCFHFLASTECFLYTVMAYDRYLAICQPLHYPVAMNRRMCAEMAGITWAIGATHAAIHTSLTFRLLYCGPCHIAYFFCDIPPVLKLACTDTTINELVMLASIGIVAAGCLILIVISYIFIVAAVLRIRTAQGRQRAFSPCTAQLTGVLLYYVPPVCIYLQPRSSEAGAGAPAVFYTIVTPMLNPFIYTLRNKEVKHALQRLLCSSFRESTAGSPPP
The method, boiled down: as §1

Each structure is given as a SMILES string. This is a selection; strong and weak results do not stand in their true shares. The calls were merged from several studies; some rest on single wells. The list shows a part of the results.

For `CC12CCC(CC1)C(C)(C)O2`, the “odorant receptor agonist call” value with OR10K1 (Homo sapiens), in the experiment with OR10K2 (Homo sapiens), with OR10T2 (Homo sapiens), in the experiment with OR10X1 (Homo sapiens), with OR10Z1 (Homo sapiens) and with OR11A1 (Homo sapiens) was “inactive” in each case. Also, the “odorant receptor agonist call” value with OR11H4 (Homo sapiens), in the experiment with OR11H6 (Homo sapiens), in the experiment with OR12D2 (Homo sapiens), in the experiment with OR12D3 (Homo sapiens) and with OR13A1 (Homo sapiens) was “inactive” in each case.
`CC(=O)c1ccccc1`: the “odorant receptor agonist call” value with OR10K1 (Homo sapiens), with OR10K2 (Homo sapiens), with OR10T2 (Homo sapiens), with OR10X1 (Homo sapiens), with OR10Z1 (Homo sapiens) and in the experiment with OR11A1 (Homo sapiens) was “inactive” in each case. Moreover, the “odorant receptor agonist call” value with OR11H4 (Homo sapiens), with OR11H6 (Homo sapiens), with OR12D2 (Homo sapiens), with OR12D3 (Homo sapiens) and with OR13A1 (Homo sapiens) was “inactive” throughout. Further, the “odorant receptor agonist call” value with OR11H12 (Homo sapiens) was “active”.
Consider `CC(C)CCC(=O)O`, for which the “odorant receptor agonist call” value with OR10K1 (Homo sapiens), with OR10K2 (Homo sapiens), with OR10T2 (Homo sapiens), in the experiment with OR10X1 (Homo sapiens), with OR10Z1 (Homo sapiens) and with OR11A1 (Homo sapiens) was “inactive” throughout. Also, the “odorant receptor agonist call” value with OR11H6 (Homo sapiens), in the experiment with OR12D2 (Homo sapiens), in the experiment with OR12D3 (Homo sapiens) and in the experiment with OR13A1 (Homo sapiens) was “inactive” each time. Besides, the “odorant receptor agonist call” value with OR11H4 (Homo sapiens) was “active”.
Turning to `c1ccc(Oc2ccccc2)cc1`, the “odorant receptor agonist call” value with OR10K1 (Homo sapiens), with OR10K2 (Homo sapiens), with OR10T2 (Homo sapiens), in the experiment with OR10X1 (Homo sapiens), in the experiment with OR10Z1 (Homo sapiens) and in the experiment with OR11A1 (Homo sapiens) was “inactive” in each case. Moreover, the “odorant receptor agonist call” value with OR11H4 (Homo sapiens), in the experiment with OR11H6 (Homo sapiens), with OR12D2 (Homo sapiens), with OR12D3 (Homo sapiens) and in the experiment with OR13A1 (Homo sapiens) was “inactive” each time.
As for `CC1CCC(C(C)C)C(O)C1` (stereo not drawn), the “odorant receptor agonist call” value in the experiment with OR10K1 (Homo sapiens), with OR10K2 (Homo sapiens), in the experiment with OR10S1 (Homo sapiens), in the experiment with OR10T2 (Homo sapiens), with OR10X1 (Homo sapiens) and in the experiment with OR10Z1 (Homo sapiens) was “inactive” each time. Moreover, the “odorant receptor agonist call” value with OR11H4 (Homo sapiens), with OR11H6 (Homo sapiens), with OR12D2 (Homo sapiens), with OR12D3 (Homo sapiens) and in the experiment with OR13A1 (Homo sapiens) was “inactive” each time. For the same compound, the “odorant receptor agonist call” value with OR11A1 (Homo sapiens) was “active”.
With `COC(=O)c1ccccc1`, the “odorant receptor agonist call” value with OR10K1 (Homo sapiens) and in the experiment with OR10K2 (Homo sapiens) was “active” throughout. Moreover, the “odorant receptor agonist call” value in the experiment with OR10T2 (Homo sapiens), in the experiment with OR10X1 (Homo sapiens), in the experiment with OR10Z1 (Homo sapiens), with OR11A1 (Homo sapiens), in the experiment with OR11H4 (Homo sapiens) and in the experiment with OR11H6 (Homo sapiens) was “inactive” throughout. For the same compound, the “odorant receptor agonist call” value in the experiment with OR12D2 (Homo sapiens), in the experiment with OR12D3 (Homo sapiens) and in the experiment with OR13A1 (Homo sapiens) was “inactive” throughout.

Source of the values: the M2OR odorant receptor database.
